For eight molecules, binding results are on record in paper doi:10.1101/2024.07.01.601467.

The chains behind the UniProt entries cited, without tags or fusion partners.
UniProt Q8NFU5: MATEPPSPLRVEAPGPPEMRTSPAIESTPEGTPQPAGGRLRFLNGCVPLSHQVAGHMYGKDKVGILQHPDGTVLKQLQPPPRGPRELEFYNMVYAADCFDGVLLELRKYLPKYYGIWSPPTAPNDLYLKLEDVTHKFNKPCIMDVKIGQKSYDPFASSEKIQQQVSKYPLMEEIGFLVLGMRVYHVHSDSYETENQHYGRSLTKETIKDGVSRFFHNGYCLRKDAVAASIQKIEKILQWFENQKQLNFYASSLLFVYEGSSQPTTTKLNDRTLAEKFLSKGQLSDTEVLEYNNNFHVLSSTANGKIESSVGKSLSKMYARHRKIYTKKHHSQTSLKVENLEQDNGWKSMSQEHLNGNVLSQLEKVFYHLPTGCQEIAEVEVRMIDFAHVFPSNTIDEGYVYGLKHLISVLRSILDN
UniProt P04792: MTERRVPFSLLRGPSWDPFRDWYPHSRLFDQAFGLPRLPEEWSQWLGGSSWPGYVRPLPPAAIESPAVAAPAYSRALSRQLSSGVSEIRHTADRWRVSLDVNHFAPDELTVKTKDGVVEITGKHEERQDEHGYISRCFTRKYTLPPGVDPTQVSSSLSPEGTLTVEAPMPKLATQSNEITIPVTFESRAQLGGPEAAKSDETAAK
UniProt Q9BTU6: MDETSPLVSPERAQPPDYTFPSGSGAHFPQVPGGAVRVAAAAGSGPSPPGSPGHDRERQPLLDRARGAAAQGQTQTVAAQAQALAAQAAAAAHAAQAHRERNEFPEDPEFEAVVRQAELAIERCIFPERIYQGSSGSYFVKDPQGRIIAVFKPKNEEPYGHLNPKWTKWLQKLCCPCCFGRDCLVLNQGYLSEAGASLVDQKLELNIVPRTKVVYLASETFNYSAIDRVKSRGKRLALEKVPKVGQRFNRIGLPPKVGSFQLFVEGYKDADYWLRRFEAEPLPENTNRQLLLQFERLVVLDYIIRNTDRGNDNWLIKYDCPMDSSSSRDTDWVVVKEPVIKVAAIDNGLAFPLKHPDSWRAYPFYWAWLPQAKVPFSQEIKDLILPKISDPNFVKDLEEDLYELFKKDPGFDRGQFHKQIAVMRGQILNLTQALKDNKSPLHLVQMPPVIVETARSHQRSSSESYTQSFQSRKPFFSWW
UniProt Q99755: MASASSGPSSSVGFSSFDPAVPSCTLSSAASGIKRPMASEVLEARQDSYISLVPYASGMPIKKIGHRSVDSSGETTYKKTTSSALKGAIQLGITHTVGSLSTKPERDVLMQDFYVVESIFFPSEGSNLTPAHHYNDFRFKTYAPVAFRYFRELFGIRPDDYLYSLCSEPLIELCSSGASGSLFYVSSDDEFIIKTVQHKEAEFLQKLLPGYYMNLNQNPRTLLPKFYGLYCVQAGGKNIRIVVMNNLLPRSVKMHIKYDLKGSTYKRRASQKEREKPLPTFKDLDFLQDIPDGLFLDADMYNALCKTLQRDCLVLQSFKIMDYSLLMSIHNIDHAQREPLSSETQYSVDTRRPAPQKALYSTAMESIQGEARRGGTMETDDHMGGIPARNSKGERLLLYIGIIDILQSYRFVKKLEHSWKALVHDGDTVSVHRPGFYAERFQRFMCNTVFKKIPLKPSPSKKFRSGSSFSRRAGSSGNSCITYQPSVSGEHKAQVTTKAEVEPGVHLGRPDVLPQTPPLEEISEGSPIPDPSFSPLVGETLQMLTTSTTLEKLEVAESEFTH

The target in experiment [1] is T1, speckle-targeted PIPKIα regulated-poly(A) polymerase (Star-PAP/TUT1), endogenous (human (endogenous in HeLa and MDA-MB-231)) (UniProt Q9H6E5).
T1 sequence: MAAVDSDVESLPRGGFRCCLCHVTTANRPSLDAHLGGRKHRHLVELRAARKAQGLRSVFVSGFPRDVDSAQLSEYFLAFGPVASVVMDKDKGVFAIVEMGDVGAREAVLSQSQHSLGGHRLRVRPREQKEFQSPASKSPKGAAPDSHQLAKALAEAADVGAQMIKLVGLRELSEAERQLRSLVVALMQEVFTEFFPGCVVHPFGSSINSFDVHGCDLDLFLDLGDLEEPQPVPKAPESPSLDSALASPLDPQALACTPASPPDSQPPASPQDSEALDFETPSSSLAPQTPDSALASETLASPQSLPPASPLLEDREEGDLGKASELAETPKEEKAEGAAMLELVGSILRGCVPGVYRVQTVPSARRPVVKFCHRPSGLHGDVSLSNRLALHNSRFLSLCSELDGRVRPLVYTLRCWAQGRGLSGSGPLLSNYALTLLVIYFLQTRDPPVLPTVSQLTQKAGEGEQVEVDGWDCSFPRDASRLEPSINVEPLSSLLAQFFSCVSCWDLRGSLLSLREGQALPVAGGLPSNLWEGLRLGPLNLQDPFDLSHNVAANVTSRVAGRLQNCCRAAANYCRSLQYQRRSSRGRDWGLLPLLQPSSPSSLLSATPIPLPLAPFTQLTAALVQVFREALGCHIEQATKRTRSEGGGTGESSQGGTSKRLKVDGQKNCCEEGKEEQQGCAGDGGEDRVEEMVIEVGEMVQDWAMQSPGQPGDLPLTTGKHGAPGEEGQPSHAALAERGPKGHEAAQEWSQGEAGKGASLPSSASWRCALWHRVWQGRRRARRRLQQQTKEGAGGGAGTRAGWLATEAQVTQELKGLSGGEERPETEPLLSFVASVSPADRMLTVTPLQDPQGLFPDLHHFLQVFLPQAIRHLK
In words: co-IP.

Experiment [2] addresses T1, speckle-targeted PIPKIα regulated-poly(A) polymerase (Star-PAP/TUT1), endogenous (human (endogenous in HeLa and MDA-MB-231)). Description: proximity ligation.
The target in a further experiment is T2, Myc-Star-PAP (UniProt Q9H6E5).
T2 sequence: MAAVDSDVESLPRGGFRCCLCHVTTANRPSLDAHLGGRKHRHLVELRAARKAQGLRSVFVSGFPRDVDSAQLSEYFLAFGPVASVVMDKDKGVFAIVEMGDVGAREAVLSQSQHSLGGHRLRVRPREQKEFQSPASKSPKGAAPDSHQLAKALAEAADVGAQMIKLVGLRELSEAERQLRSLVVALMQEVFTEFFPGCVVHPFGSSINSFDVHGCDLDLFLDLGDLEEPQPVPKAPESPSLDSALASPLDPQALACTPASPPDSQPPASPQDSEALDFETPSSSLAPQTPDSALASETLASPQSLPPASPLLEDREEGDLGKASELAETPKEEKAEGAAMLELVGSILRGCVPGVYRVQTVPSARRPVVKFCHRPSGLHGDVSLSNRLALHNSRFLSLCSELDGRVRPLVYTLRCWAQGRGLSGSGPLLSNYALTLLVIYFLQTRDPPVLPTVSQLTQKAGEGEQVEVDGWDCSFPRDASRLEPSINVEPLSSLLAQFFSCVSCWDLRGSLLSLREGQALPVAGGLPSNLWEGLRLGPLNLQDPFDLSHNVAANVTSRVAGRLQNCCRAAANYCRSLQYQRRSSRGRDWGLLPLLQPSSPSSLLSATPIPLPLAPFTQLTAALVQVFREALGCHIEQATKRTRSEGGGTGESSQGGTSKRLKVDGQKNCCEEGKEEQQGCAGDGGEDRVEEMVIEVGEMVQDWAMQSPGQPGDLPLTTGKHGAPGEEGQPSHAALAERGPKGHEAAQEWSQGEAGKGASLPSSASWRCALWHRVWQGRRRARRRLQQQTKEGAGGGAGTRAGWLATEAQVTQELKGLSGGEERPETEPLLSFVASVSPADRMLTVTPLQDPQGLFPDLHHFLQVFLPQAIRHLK
Description: proximity ligation.

Experiment [3] addresses T1, speckle-targeted PIPKIα regulated-poly(A) polymerase (Star-PAP/TUT1), endogenous (human (endogenous in HeLa and MDA-MB-231)). In words: proximity ligation. This is another data set of the same source.
For experiment [4] the target is unchanged. In words: co-IP. The source holds these as a separate data set.

These are yes or no findings as the source states them, for the method shown. Binding seen in cells or lysates may run through a third protein. Some binding calls cover weakened binding; strength is not graded here. For some of these results: Sequences can lack the tags named with a protein.

With “nuclear PI 3-kinase IPMK, endogenous (from UniProt Q8NFU5 1-416) (enzyme)”, the binding entry in experiment [1] and in experiment [2] was “binds” in each case.
Take “small heat shock protein HSP27, endogenous (from UniProt P04792 1-205)”: the binding result in experiment [1] and in experiment [2] was “binds” each time.
For the molecule “Myc-IPMK (from UniProt Q8NFU5 1-416) (enzyme)”, in experiment [2], the binding entry is reported as “binds”.
Take “PI 4-kinase PI4KIIα, endogenous (from UniProt Q9BTU6 1-479) (enzyme)”: the binding result in experiment [1] and in experiment [2] was “binds” throughout.
Take “phosphatidylinositol 4-phosphate 5-kinase PIPKIα (PIP5K1A), endogenous (from UniProt Q99755 1-562) (enzyme)”: the binding result (in experiment [1]; in the experiment with Myc-Star-PAP; in experiment [2]) was “binds” throughout.

B1: PI transfer protein PITPα, endogenous (protein, UniProt Q00169 1-270)
chain: MVLLKEYRVILPVSVDEYQVGQLYSVAEASKNETGGGEGVEVLVNEPYEKDGEKGQYTHKIYHLQSKVPTFVRMLAPEGALNIHEKAWNAYPYCRTVITNEYMKEDFLIKIETWHKPDLGTQENVHKLEPEAWKHVEAVYIDIADRSQVLSKDYKAEEDPAKFKSIKTGRGPLGPNWKQELVNQKDCPYMCAYKLVTVKFKWWGLQNKVENFIHKQERRLFTNFHRQLFCWLDKWVDLTMDDIRRMEEETKRQLDEMRQKDPVKGMTADD
Take B1: the binding entry in experiment [3] and in experiment [4] was “binds” each time.

B2: PI transfer protein PITPβ, endogenous (protein, UniProt P48739 1-271)
chain: MVLIKEFRVVLPCSVQEYQVGQLYSVAEASKNETGGGEGIEVLKNEPYEKDGEKGQYTHKIYHLKSKVPAFVRMIAPEGSLVFHEKAWNAYPYCRTIVTNEYMKDDFFIKIETWHKPDLGTLENVHGLDPNTWKTVEIVHIDIADRSQVEPADYKADEDPALFQSVKTKRGPLGPNWKKELANSPDCPQMCAYKLVTIKFKWWGLQSKVENFIQKQEKRIFTNFHRQLFCWIDKWIDLTMEDIRRMEDETQKELETMRKRGSVRGTSAADV
On to B2, for which the binding result in experiment [3] and in experiment [4] was “binds” throughout.

B3: small heat shock protein αB-crystallin, endogenous (protein, UniProt P02511 1-175)
chain: MDIAIHHPWIRRPFFPFHSPSRLFDQFFGEHLLESDLFPTSTSLSPFYLRPPSFLRAPSWFDTGLSEMRLEKDRFSVNLDVKHFSPEELKVKVLGDVIEVHGKHEERQDEHGFISREFHRKYRIPADVDPLTITSSLSSDGVLTVNGPRKQVSGPERTIPITREEKPAVTAAPKK
On to B3, for which the binding result in experiment [3] and in experiment [4] was “binds” in each case.
